The other results are listed elsewhere or left out.

Amino acid sequences for entries named in this document (tags omitted). A change or cut given only in a name is not applied to a line headed by its entry.
UniProt Q99683: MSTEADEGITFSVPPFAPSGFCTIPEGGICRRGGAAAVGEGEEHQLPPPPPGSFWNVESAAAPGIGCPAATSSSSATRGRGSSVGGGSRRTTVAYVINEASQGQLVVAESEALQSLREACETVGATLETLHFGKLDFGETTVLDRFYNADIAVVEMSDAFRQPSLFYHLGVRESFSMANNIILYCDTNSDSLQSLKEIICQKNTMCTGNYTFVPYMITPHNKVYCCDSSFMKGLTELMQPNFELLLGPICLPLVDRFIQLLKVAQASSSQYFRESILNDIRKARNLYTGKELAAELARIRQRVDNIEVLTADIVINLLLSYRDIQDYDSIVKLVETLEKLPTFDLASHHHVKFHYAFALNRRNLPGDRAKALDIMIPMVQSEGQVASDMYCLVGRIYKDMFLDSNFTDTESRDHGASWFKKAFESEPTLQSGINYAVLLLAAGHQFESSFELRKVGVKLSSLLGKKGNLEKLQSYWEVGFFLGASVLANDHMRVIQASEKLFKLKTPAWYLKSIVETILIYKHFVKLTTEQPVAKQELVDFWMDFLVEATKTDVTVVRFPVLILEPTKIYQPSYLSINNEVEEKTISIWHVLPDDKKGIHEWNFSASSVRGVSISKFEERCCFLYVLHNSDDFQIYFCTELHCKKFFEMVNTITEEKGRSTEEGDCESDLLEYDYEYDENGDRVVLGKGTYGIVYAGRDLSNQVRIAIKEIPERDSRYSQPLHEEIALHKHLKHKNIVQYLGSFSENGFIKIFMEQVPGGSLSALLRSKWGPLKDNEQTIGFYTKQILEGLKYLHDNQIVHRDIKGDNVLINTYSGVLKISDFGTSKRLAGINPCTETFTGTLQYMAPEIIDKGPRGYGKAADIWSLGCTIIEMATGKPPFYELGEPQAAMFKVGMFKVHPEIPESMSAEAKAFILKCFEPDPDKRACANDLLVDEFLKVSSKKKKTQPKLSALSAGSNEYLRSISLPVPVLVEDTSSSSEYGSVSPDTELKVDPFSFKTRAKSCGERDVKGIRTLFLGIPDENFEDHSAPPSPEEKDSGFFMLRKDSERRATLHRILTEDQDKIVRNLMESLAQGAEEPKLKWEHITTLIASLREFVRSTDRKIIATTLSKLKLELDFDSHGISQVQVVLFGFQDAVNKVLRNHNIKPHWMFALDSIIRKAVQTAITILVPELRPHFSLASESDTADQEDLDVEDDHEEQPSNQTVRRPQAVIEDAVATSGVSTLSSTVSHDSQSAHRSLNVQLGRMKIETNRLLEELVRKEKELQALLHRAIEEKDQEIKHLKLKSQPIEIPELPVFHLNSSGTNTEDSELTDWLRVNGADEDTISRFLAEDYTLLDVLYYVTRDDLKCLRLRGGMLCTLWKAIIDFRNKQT
UniProt Q8IVH8: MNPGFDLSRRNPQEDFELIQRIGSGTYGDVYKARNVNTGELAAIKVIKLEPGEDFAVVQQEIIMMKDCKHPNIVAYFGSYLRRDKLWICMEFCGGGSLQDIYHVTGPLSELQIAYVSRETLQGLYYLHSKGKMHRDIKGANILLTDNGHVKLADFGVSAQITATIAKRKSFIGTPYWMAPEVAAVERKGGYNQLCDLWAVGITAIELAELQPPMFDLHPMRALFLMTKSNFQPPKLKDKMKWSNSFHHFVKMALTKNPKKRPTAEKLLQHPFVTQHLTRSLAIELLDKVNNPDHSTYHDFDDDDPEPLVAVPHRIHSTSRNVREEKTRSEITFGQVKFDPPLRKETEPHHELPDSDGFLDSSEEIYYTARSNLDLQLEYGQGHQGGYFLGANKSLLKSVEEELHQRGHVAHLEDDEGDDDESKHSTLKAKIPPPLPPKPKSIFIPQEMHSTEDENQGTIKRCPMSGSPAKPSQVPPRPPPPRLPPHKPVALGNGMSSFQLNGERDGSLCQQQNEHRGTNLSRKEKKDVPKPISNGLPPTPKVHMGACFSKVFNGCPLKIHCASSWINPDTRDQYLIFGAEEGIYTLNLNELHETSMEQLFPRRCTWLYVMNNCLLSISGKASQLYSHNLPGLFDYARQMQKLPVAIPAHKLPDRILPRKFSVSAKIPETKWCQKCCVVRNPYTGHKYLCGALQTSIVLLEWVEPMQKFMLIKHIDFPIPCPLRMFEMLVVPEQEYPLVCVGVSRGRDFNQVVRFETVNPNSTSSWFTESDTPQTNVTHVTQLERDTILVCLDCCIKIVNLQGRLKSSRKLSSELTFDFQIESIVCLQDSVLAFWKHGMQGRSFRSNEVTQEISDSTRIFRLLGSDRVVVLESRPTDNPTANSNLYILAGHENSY
UniProt Q8WV07: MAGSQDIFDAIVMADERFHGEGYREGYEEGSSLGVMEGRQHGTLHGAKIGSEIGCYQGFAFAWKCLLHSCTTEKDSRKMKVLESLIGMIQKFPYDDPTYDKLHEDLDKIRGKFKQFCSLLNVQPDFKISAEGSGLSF
UniProt Q5TCQ9: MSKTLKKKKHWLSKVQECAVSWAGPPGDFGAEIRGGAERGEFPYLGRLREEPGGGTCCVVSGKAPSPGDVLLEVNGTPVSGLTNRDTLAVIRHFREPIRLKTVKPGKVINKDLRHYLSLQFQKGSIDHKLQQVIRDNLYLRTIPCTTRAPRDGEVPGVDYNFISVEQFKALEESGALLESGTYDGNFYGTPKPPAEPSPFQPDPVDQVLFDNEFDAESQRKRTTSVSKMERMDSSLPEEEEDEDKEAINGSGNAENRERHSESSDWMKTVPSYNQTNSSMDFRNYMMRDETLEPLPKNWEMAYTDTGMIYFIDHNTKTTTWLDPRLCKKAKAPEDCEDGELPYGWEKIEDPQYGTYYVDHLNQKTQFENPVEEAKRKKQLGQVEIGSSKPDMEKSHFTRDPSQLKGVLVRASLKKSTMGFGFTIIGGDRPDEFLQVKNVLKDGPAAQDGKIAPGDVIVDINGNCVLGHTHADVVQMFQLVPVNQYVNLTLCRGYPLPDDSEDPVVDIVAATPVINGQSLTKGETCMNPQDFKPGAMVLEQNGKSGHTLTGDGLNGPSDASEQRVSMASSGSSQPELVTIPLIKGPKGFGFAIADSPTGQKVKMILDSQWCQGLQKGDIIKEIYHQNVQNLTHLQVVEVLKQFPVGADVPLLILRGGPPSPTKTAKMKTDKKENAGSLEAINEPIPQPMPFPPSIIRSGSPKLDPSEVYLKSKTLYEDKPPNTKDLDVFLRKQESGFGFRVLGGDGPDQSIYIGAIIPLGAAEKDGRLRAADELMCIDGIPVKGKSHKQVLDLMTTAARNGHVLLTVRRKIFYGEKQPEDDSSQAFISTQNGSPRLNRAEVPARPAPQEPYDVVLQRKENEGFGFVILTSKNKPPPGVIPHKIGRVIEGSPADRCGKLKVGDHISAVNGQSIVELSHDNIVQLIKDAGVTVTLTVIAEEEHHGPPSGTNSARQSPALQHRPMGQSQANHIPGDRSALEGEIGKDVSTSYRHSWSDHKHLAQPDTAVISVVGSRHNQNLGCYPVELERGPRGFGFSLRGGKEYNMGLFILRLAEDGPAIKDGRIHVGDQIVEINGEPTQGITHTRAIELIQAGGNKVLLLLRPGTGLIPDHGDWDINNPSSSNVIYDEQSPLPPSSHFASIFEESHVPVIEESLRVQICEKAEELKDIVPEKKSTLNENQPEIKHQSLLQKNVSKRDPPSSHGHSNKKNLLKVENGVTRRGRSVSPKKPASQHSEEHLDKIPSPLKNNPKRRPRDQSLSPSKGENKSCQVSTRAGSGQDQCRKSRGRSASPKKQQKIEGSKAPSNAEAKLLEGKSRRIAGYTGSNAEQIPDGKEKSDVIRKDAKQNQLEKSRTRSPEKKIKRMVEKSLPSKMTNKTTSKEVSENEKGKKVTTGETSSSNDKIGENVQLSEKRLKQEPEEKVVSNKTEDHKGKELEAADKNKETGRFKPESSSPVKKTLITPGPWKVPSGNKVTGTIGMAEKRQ
UniProt Q92585: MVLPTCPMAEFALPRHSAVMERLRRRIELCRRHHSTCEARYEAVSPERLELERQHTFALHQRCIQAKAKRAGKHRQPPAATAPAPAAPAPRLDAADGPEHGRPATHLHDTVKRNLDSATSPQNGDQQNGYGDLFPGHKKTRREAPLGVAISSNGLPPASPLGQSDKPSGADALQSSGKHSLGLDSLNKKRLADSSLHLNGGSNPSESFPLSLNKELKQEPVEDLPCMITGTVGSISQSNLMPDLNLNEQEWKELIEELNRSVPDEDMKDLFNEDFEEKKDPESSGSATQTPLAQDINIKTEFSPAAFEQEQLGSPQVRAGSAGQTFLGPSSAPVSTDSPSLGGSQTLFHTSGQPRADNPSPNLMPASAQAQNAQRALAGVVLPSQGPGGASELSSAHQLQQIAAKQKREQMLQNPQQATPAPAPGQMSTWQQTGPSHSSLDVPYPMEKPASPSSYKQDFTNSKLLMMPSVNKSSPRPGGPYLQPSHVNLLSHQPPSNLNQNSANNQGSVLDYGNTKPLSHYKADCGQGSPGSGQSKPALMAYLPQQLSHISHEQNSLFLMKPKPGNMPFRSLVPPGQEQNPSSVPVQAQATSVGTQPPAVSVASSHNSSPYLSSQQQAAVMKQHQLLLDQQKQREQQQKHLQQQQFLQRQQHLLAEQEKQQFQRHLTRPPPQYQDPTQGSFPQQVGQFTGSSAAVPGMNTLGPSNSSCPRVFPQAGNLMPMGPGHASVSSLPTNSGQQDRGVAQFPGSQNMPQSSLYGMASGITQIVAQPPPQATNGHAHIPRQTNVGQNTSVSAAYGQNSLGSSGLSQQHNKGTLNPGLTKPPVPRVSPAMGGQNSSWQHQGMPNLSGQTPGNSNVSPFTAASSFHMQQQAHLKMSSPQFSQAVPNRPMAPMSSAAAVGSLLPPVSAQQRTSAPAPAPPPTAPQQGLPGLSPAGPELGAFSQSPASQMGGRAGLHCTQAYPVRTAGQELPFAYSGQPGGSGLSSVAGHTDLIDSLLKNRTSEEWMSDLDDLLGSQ
UniProt P36941: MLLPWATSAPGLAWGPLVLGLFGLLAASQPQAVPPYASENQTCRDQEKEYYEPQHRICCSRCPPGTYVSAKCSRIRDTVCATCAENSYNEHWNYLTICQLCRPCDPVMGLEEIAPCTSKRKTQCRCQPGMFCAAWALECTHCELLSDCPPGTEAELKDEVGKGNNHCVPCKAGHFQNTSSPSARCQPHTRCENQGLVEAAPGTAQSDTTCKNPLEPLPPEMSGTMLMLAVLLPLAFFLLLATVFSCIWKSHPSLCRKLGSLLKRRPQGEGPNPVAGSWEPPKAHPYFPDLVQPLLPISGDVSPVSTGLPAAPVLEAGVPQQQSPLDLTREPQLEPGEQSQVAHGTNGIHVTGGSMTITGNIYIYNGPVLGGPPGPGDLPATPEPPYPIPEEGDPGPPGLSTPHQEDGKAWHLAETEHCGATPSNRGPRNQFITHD
UniProt Q8IWC1: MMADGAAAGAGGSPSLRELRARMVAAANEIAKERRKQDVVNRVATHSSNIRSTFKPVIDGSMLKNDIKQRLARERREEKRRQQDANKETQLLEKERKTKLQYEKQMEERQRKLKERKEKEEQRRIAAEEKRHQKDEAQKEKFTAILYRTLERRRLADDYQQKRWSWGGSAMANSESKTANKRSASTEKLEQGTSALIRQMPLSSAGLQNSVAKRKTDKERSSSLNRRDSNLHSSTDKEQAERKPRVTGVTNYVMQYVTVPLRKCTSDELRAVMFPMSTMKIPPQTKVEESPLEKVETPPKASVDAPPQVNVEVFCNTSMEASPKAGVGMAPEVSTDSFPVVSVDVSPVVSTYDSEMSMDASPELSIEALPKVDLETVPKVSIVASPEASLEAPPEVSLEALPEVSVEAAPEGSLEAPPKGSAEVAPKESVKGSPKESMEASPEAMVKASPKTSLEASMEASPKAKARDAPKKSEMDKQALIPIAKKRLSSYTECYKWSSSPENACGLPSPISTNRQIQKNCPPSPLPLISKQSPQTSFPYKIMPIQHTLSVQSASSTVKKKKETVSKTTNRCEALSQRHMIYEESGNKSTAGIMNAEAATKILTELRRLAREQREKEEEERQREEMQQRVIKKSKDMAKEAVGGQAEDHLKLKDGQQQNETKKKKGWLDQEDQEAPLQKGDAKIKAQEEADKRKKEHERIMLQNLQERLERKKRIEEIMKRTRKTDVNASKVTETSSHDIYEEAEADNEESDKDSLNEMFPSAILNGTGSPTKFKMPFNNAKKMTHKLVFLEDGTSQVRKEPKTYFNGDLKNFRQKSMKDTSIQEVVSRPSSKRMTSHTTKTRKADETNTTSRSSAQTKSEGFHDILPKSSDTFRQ
UniProt Q16553: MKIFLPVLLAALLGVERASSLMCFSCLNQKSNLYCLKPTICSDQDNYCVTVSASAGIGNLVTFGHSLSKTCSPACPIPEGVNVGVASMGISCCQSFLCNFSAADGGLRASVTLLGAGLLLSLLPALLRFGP
UniProt Q13257, whole entry, looked up: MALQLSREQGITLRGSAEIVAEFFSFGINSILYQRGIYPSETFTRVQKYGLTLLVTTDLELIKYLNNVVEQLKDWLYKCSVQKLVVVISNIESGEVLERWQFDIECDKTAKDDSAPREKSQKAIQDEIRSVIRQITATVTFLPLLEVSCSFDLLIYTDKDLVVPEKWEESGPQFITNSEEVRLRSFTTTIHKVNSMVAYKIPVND

Compound in this test: C=CC(=O)N1CCC[C@@H](n2nc(-c3ccc(Oc4ccccc4)cc3)c3c(N)ncnc32)C1 [ibrutinib]
Put plainly: log2 fold change, soluble protein after heating vs DMSO (PISA); higher = thermal stabilisation; K562 lysate, 10 uM; active = over 0.2 and 3.5 SD of the protein, either way, in both replicates (recomputed). The gist of the method: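 The values are log-two fold changes in thermal stability compared with solvent controls and come from duplicates. They were obtained by TMTpro 16plex LC-MS/MS, with channel sums equalised, on the supernatant after 21,000xg for 90 min. That supernatant came from crude K562 extract at 1 mg/mL protein treated with 10 μM compound for 30 min, heated for 3 min across 48°C-58°C, pooled and brought to 0.5% NP-40 at 4°C.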
For the target LUC7L3 (UniProt O95232), the log2 fold change was inactive: -0.033.

As to MAP3K5 (UniProt Q99683), the log2 fold change is inactive: -0.163.

With MACF1, A0A0A6YYJ5, the log2 fold change is inactive: -0.006.

Turning to MAP4K3 (UniProt Q8IVH8), the log2 fold change is inactive: -0.072.

With LTO1 (UniProt Q8WV07), the log2 fold change is inactive: 0.189.

Take MANEA (UniProt Q5SRI9): the log2 fold change was inactive: 0.

Regarding MAPRE3 isoform 2 (UniProt Q9UPY8), the log2 fold change is inactive: -0.221.

As for LTBP4 (UniProt Q8N2S1), the log2 fold change is inactive: -0.074.

As for MANBAL (UniProt Q9NQG1), the log2 fold change is inactive: 0.077.

As for MAP4K2 (UniProt Q12851), the log2 fold change is inactive: -0.036.

As for MAST2 (UniProt Q6P0Q8), the log2 fold change is inactive: 0.136.

With MAGI3 isoform 1 (UniProt Q5TCQ9), the log2 fold change is inactive: 0.093.

In the case of MAML1 (UniProt Q92585), the log2 fold change is inactive: -0.004.

Turning to MAP4 isoform 5 (UniProt P27816), the log2 fold change was inactive: 0.172.

Turning to MAP4K5 (UniProt Q9Y4K4), the log2 fold change is inactive: 0.029.

With MAPK12 (UniProt P53778), the log2 fold change is inactive: 0.049.

For the target MAP7 (UniProt Q14244), the log2 fold change was inactive: 0.059.

For MARF1 (UniProt Q9Y4F3), the log2 fold change is inactive: 0.027.

As for MAN2B2 (UniProt Q9Y2E5), the log2 fold change was inactive: -0.019.

For the target MAP4 (UniProt E7EVA0), the log2 fold change was inactive: 0.001.

As for MARCHF6 (UniProt O60337), the log2 fold change was active: -0.395.

In the case of MACF1 (UniProt E9PLY5), the log2 fold change is inactive: 0.065.

Take MAP4K4 isoform 6 (UniProt O95819): the log2 fold change is inactive: 0.056.

LZTS2 (UniProt Q9BRK4): the log2 fold change is inactive: -0.078.

Consider LTBR (UniProt P36941), for which the log2 fold change was inactive: -0.185.

In the case of MAP7D3 (UniProt Q8IWC1), the log2 fold change was inactive: -0.073.

On to MAFG (UniProt O15525), for which the log2 fold change was inactive: 0.

For MAPK11 (UniProt Q15759), the log2 fold change was inactive: 0.072.

Take MAGED1 isoform 2 (UniProt Q9Y5V3): the log2 fold change is inactive: 0.112.

Turning to LY6E (UniProt Q16553), the log2 fold change was inactive: -0.032.

Take LZTFL1 (UniProt Q9NQ48): the log2 fold change is inactive: 0.006.

Consider M6PR (UniProt P20645), for which the log2 fold change is inactive: -0.017.

MAD2L1 (UniProt Q13257): the log2 fold change is inactive: 0.005.

The values above are taken from the supplement of paper PMC10849652.
